Test results taken from PubChem BioAssay AID1671190 (National Center for Advancing Translational Sciences (NCATS), 2021).
In all, about 580,000 compounds went through this assay and about 6,100 (1.1%) were called active. The inconclusive results got no clear call from the source; some entries with a clear call stand among them for comparison. Calls follow the shape of the dose curve; as a rule, active = well fitted inhibition curve with a large enough effect; inconclusive = small, poorly fitted or top-dose-only effect, or another doubt; inactive = no such curve, though single readings can be large or run the other way. Potencies of inconclusive entries are doubtful fits and often do not repeat.

Protein sequences, listed by entry. Tags and fused reporters are not part of them. Lines headed by an entry give the natural chain unless they say otherwise; changes in a name come on top.
UniProt P18054: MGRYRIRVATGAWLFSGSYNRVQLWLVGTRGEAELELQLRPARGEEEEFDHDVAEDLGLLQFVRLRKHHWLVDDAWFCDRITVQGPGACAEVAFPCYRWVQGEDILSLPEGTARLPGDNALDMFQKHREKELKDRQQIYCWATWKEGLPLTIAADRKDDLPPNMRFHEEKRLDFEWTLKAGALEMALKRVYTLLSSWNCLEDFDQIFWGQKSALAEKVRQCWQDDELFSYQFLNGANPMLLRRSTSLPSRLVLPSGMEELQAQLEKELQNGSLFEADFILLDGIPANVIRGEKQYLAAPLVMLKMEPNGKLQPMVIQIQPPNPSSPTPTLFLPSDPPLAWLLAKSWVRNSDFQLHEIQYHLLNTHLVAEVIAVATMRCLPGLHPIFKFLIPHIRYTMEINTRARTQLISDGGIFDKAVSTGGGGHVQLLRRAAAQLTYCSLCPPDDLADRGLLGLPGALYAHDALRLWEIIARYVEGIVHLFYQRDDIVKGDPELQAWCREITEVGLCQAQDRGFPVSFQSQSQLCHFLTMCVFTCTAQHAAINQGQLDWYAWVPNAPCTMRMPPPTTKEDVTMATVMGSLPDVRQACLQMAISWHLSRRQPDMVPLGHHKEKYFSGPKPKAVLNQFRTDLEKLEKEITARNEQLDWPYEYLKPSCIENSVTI

Biological target: Polyunsaturated fatty acid lipoxygenase ALOX12 (Homo sapiens) (UniProt P18054)
Experiment: Primary qHTS assay for inhibitors of human arachidonate 12S-lipoxygenase (ALOX12): Round 2
Details: purified 12hLO, xylenol orange hydroperoxide absorbance; series mostly up to 108 µM
Procedure, shortened: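 Hydroperoxide product was detected by ferrous iron/xylenol orange as the 573 to 405 nm absorbance ratio. Arachidonic acid at 40 uM (final) was turned over for 30 min at room temperature by 150 nM human 12hLO, pH 7.0 Hepes buffer, after 15 min compound preincubation.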
Potency is read from the fitted curve at half-maximal effect.

Row | SMILES | Potency
1 | COc1ccc([S+](=O)([O-])c2nnn3c2nc(N2CCOCC2)c2ccccc23)cc1 | inconclusive: 7.08 µM [inhibitor, full curve, poor fit]
2 | CCn1cc(Br)c(C(=O)Nc2ccc(C)cc2C)n1 | inconclusive: 100 µM [inhibitor, single point]
3 | COC(=O)c1ccc(CN(C)C(=O)CCc2ncc(-c3ccc(F)cc3)o2)cc1 | inconclusive: 50.1 µM [inhibitor, partial curve, poor fit]
4 | CCCCNC(=O)N1CCN(C(=O)Cc2c[nH]c3ccccc23)CC1 | inconclusive: 31.6 µM [inhibitor, single point]
5 | Cc1ccc(C(=O)NCCn2cccc2-c2nc(-c3ccc4c(c3)OCO4)no2)cn1 | inconclusive: 39.8 µM [inhibitor, full curve]
6 | CC1(C)CC(=O)C(=Cc2cn(CCC#N)nc2-c2ccc(Cl)cc2)C(=O)C1 | inconclusive: 44.7 µM [inhibitor, partial curve, poor fit]
7 | CCc1ccc(-n2c(C)cc(/C=N/NC(=O)OC)c2C)cc1 | inconclusive: 50.1 µM [inhibitor, partial curve, poor fit]
8 | FC(F)(F)c1cccc(NC(=S)NCCc2c[nH]c3ccccc23)c1 | active: 39.8 µM
9 | CCOc1ccc(C(=O)N2CCC(Cc3nc(-c4ccc(F)cc4)no3)CC2)cc1OCC | inconclusive: 89.1 µM [inhibitor, single point]
10 | CCCN1CCc2c(sc(NC(=O)c3ccc(S(=O)(=O)N4CCCC4)cc3)c2C(N)=O)C1 | inconclusive: 39.8 µM [inhibitor, partial curve, poor fit]
11 | C#CCO[C@@H]1CCN(S(=O)(=O)c2cccs2)[C@H](C(=O)N[C@H](C)C(N)=O)C1 | inconclusive: 56.2 µM [inhibitor, partial curve, poor fit]
12 | CCCn1c(N)c(N(CCOC)C(=O)c2ccc(OC(F)(F)F)cc2)c(=O)[nH]c1=O | inactive
13 | COc1cccc(/C=C/C(=O)c2cc3cccc(OC)c3oc2=O)c1 | inconclusive: 50.1 µM [inhibitor, partial curve, poor fit]
14 | CC(C)Oc1cccc(-c2cccc(COc3cnc4c(ccn4CC(=O)O)c3)c2)c1 | inconclusive: 44.7 µM [inhibitor, full curve]
15 | COC(=O)[C@@H]1Cc2c([nH]c3ccccc23)[C@H]2C[C@H](NCCNC(C)=O)C[C@@H](c3ccccc3)N21 | inactive
16 | C=CCN=C1NC(c2ccccc2)C(C(=O)OC)=C(C)N1Cc1ccc(C(F)(F)F)cc1 (configuration not stated) | inconclusive: 56.2 µM [inhibitor, partial curve, poor fit]
17 | Cc1ccc(NC2=C(N3CCCCC3)C(=O)c3ccccc3C2=O)cc1 | inconclusive: 56.2 µM [inhibitor, partial curve, poor fit]
18 | O=C(Cn1c(=O)n(-c2ccccc2)c(=O)c2ccc(C(=O)NCc3ccc4c(c3)OCO4)cc21)Nc1ccc(Br)cc1 | inconclusive: 56.2 µM [inhibitor, partial curve, poor fit]
19 | C/C(=N\Nc1cccc(C(F)(F)F)c1)c1ccc(O)cc1 | active: 35.5 µM

Part of the list above, in markdown.

| Row | SMILES | Potency |
| --- | --- | --- |
| 6 | CC1(C)CC(=O)C(=Cc2cn(CCC#N)nc2-c2ccc(Cl)cc2)C(=O)C1 | inconclusive: 44.7 µM [inhibitor, partial curve, poor fit] |
| 7 | CCc1ccc(-n2c(C)cc(/C=N/NC(=O)OC)c2C)cc1 | inconclusive: 50.1 µM [inhibitor, partial curve, poor fit] |
| 17 | Cc1ccc(NC2=C(N3CCCCC3)C(=O)c3ccccc3C2=O)cc1 | inconclusive: 56.2 µM [inhibitor, partial curve, poor fit] |

(continued)

Row | SMILES | Potency
20 | Cc1ccc(S(=O)(=O)N2CCN(C(=O)c3c(C)nn(-c4ccccc4)c3Cl)CC2)cc1 | inconclusive: 15.8 µM [inhibitor, full curve, poor fit]
21 | c1ccc(CNc2nc(-c3ccc4c(c3)OCO4)nc3ccccc23)cc1 | inconclusive: 6.31 µM [inhibitor, full curve, poor fit]
22 | CN(C)S(=O)(=O)N1CCC2(CCC(=O)N(CC3CC3)CC2)CC1 | inconclusive: 28.2 µM [inhibitor, partial curve, poor fit]
23 | O=C(c1ccc(Nc2nccc(-c3cc4ccccc4s3)n2)cc1)N1CCC(N2CCCC2)CC1 | inconclusive: 35.5 µM [inhibitor, partial curve, poor fit]
24 | CCN(CC)C(=O)[C@H]1CC(CC(=O)NCCC2=CCCCC2)C(=O)N2CCc3c([nH]c4ccc(OC)cc34)[C@]12C (some centres not stated) | inactive
25 | CCS(=O)(=O)c1oc(-c2ccc(F)cc2)nc1S(=O)(=O)c1ccccc1 | inactive
26 | O=C(Cn1c(=O)n(CCc2ccccc2)c(=O)c2sccc21)c1ccc(F)cc1 | inconclusive: 39.8 µM [inhibitor, partial curve, poor fit]
27 | Cc1ccc(CNC(=O)Cn2c(CO)cnc2SCC(=O)Nc2c(C)cc(C)cc2C)cc1 | inconclusive: 112 µM [inhibitor, partial curve, poor fit]
28 | CC(C)(c1ccc(O)cc1)c1ccc(Cl)cc1 | inconclusive: 56.2 µM [inhibitor, partial curve, poor fit]
29 | O=C(NCc1ccc(Cl)s1)c1cc(COc2c(F)cccc2F)on1 | inconclusive: 89.1 µM [inhibitor, partial curve, poor fit]
30 | CCc1ccccc1S(=O)(=O)N1CCC(n2cnnc2C)CC1 | inconclusive: 1.12 µM [inhibitor, full curve, poor fit]
31 | O=C(O)c1[nH]c2ccccc2c1C(c1cc(Cl)cc([N+](=O)[O-])c1O)c1c(C(=O)O)[nH]c2ccccc12 | inconclusive: 44.7 µM [inhibitor, partial curve, poor fit]
32 | Cc1ccc(S(=O)(=O)N2C[C@@H]3[C@H]4CC[C@H](C4)[C@@H]3[C@@H](C)[C@H]2c2ccco2)cc1 | inactive
33 | Cc1cccc(OCCNc2cc(N3CCN(CCO)CC3)ccc2[N+](=O)[O-])c1 | inconclusive: 44.7 µM [inhibitor, partial curve, poor fit]
34 | O=[N+]([O-])/C=C/c1cn(Cc2ccc(F)cc2)c2ccccc12 | active: 3.55 µM
35 | Cc1ccc(OCCCCN2CCC(C)CC2)c(Br)c1 | inconclusive: 0.316 µM [inhibitor, full curve, poor fit]
36 | CCOC(=O)C(C)On1c(SC(C)C(=O)OCC)nc2ccccc2c1=O (configuration not stated) | inconclusive: 126 µM [inhibitor, single point]
37 | CC1=C(C(=O)Nc2cccc(C(=O)NC3CCCCC3C)c2)SCCO1 (configuration not stated) | inactive
